Experimental data taken from article PMC9370705, “Conformational Dynamics of Human ALKBH2 Dioxygenase in the Course of DNA Repair as Revealed by Stopped-Flow Fluorescence Spectroscopy”.
Construct, isoform or probe ends are uncertain for at least one entry. At least one verdict rests on a figure or table, not on a statement of the authors. Where a protein sequence is shown, tags need not be part of it.

Molecular target: T1, ALKBH2 (Homo sapiens) (UniProt Q6NS38)
T1 sequence (looked up, limits assumed): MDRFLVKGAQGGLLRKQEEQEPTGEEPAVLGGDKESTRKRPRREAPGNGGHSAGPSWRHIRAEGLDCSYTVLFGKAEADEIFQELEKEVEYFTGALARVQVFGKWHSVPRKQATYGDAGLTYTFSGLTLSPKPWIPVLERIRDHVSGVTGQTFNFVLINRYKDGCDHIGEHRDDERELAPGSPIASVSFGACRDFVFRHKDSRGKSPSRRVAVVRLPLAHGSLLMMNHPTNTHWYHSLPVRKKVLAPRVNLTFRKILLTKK
Experiment: Trp fluorescence titration
Details: range over all lesions and forms, 50 mM HEPES-KOH pH 7.5, 50 mM KCl, 10 mM MgCl2, 25 °C (titration, 1 uM enzyme per legend), 2 mM EDTA for apo, recombinant protein

Measured: binding result

ACAGGATCCGGCATA (double strand) [m3C]
binds: 40 uM Fe(II), 1.5-fold higher affinity than apo, N3-methylcytosine at position 9 of strand 1 | 100 uM Co(II), 1 mM 2OG, N3-methylcytosine at position 9 of strand 1 | apo, 2 mM EDTA, N3-methylcytosine at position 9 of strand 1

ACAGGATCCGGCATA (double strand) [εA]
binds: 40 uM Fe(II), affinity as apo, 1,N6-ethenoadenine at position 6 of strand 1 | 100 uM Co(II), 1 mM 2OG, 2-fold lower Kd than apo, 1,N6-ethenoadenine at position 6 of strand 1 | apo, 2 mM EDTA, 1,N6-ethenoadenine at position 6 of strand 1

ACAGGATCCGGCATA (double strand) [m1A]
binds: 40 uM Fe(II), 1.5-fold higher affinity than apo, N1-methyladenine at position 6 of strand 1 | 100 uM Co(II), 1 mM 2OG, N1-methyladenine at position 6 of strand 1 | apo, 2 mM EDTA, single values in Figure 3, N1-methyladenine at position 6 of strand 1
